Laboratory results taken from patent US4745223A, “Mono-tertiary-alkylated toluenediamine and derivatives” (Air Products and Chemicals, Inc., priority 1985, dated 1988).
Where “and” joins values, the source holds several entries; their conditions need not be identical. Equal values may be shown once.

Assays:
[1] = Pot life test of chain extenders in polyurethane-urea formulation; conditions: for T-5000 pot-life time: 50° C., time to relative viscosity of 5000 units
Protocol: A series of polyurethane-urea elastomers utilizing various chain extenders was prepared and evaluated in a pot life test system for the purpose of determining the reactivity of the chain extenders in standard urethane formulations relative to one another. The polyurethane-urea elastomers were formulated by reacting a prepolymer of poly(1,4-oxytetramethylene)glycol end-capped with 2,4-toluene diisocyanate, the prepolymer having an NCO content generally from 5-7%, with the test candidate chain extender aromatic diamine and a diol. The nominal stoichiometric equivalent ratio of isocyanate to diamine chain extender to diol for each sample is 2:1:1.
The test system for measuring pot life comprised a heated test chamber for holding 7 grams of test sample at a constant temperature (50° C.) and was equipped with a vertical perforated piston. This piston moves up and down through the test sample in timed relationship. (The temperature rise due to the exothermic reaction is discounted.) The force necessary to move the piston through the polymer sample is measured in arbitrary units, and the relationship of the force is plotted as a function of time. The force-pot life relationship of the urethane system during cure then is correlated to known force-viscosity relationships for the urethane-urea systems.
The coefficients apply to the equation:
log (viscosity)=I+A(time)+B(time)^2 +C(time)^3.
The coefficient of the first power term ("A") is a "quasi" reaction rate constant measuring initial reactivity. Smaller values in the quasi rate constant (A) indicate longer and desirable pot lives. The value T-5000 is the time in which the reaction product has a relative viscosity of 5000 units. Even though the value is an arbitrary value, that value is relevant for use in determining the performance of the test candidate in a RIM process or cast elastomers process. For injection molding of modest size parts, T-5000 may be about 2.5 minutes; whereas, the molding of large or intricate parts may require a T-5000 of greater than 5 minutes, e.g., 10 to 40 minutes for hand casting.

[2] = Physical properties of cast polyurethane elastomers (ADIPRENE 167) made with the chain extender; conditions: for Ratio 300/100 tensile / tear resistance / 100% tensile / 200% tensile / 300% tensile / break tensile / Shore A Hardness / Shore D Hardness / % elongation: cast, NCO index .95 (3tB26TDA) or 1.04-1.05; for tear resistance: ASTM D624 (Die C); for 100% tensile / 200% tensile / 300% tensile / break tensile: ASTM D1708; for Shore A Hardness / Shore D Hardness: ASTM D2240; for % elongation: at break
[3] = Physical properties of RIM (reaction injection molded) elastomers made with the chain extender; conditions: Table 5, VORANOL 5815, 22 pph

## Cc1cc(C(C)(C)C)c(N)c(C)c1N [5tB24DAmX, 5-tertiaryButyl-2,4-diaminometaxylene]
[1]
  T-5000 pot-life time: 2.6 min and 2.64 min

## Cc1c(N)c(C(C)C)cc(C(C)C)c1N [35DiP26TDA, 3,5-Diisopropyl-2,6-toluenediamine]
[1]
  T-5000 pot-life time: 1.63 min

## Cc1c(N)ccc(C(C)(C)C)c1N [3tB26TDA, 3-tert-butyl-2,6-toluenediamine]
[2]
  Ratio 300/100 tensile: 2.26
  tear resistance: 660 pli
  100% tensile: 1520 psi
  200% tensile: 2380 psi
  300% tensile: 3440 psi
  break tensile: 5490 psi
  Shore A Hardness: 94
  Shore D Hardness: 44
  % elongation: 480%
[3]; NCO index 1.04-1.06
  100% tensile: 1720 psi
  200% tensile: 2180 psi
  300% tensile: 2760 psi
  % elongation: 340%
  Shore A Hardness: 97
  Shore D Hardness: 60
  break tensile: 2920 psi
  flexural modulus: 30300 psi
  maximum stress: 1600 psi
  sag (125° C., 1 hr): 2.11 in
  tear resistance: 650 pli
  yield tensile: 1910 psi
[3]; NCO index .93-.96
  100% tensile: 1420 psi
  200% tensile: 1750 psi
  300% tensile: 2130 psi
  % elongation: 410%
  Shore A Hardness: 97
  Shore D Hardness: 58
  break tensile: 2560 psi
  flexural modulus: 23600 psi
  maximum stress: 1160 psi
  sag (125° C., 1 hr): 2.68 in
  tear resistance: 600 pli
  yield tensile: 1650 psi
[1]
  T-5000 pot-life time: 17.8 min

## Cc1c(N)cc(C(C)(C)C)cc1N [4tB26TDA, 4-tertiaryButyl-2,6-toluenediamine]
[1]
  T-5000 pot-life time: .54 min
[1]; listed as 4-tertiarybutyl-2,6-toluenediamine
  T-5000 pot-life time: 0.5 min

## Cc1cc(C(C)C)c(N)c(C(C)C)c1N [35DiP24TDA, 3.5-Diisopropyl-2,4-toluenediamine]
[1]
  T-5000 pot-life time: 2.42 min

## Cc1cc(C(C)C)c(N)cc1N [5iP24TDA, 5-isoPropyl-2,4-toluenediamine]
[1]
  T-5000 pot-life time: .54 min

## Cc1c(N)c(C(C)(C)C)cc(C(C)(C)C)c1N [35DtB26TDA, 3,5-Ditertiarybutyl-2,6-toluenediamine]
[2]
  Ratio 300/100 tensile: 2.32
  tear resistance: 720 pli
  100% tensile: 1410 psi
  200% tensile: 2310 psi
  300% tensile: 3270 psi
  break tensile: 6540 psi
  Shore A Hardness: 93
  Shore D Hardness: 43
  % elongation: 620%
[1]
  T-5000 pot-life time: 11.3 min

## Cc1c(N)ccc(C2(C)CCCC2)c1N [3tMCp26TDA, 3-tertiaryMethylcyclopentyl-2,6-toluenediamine]
[1]
  T-5000 pot-life time: 12.2 min

## 3-Cyclopentenyl-2,6-toluenediamine [3Cp26TDA]
[1]
  T-5000 pot-life time: 3.52 min
[1]; listed as 3-cyclopentenyl-2,6-TDA
  T-5000 pot-life time: 3.5 min

## chlorotoluenediamine [Cl-TDA]
[2]
  Ratio 300/100 tensile: 2.16
  tear resistance: 530 pli
  100% tensile: 1360 psi
  200% tensile: 2080 psi
  300% tensile: 2940 psi
  break tensile: 3050 psi
  Shore A Hardness: 90
  Shore D Hardness: 39
  % elongation: 320%

## Cc1cc(N)c(N)c(C(C)(C)C)c1 [3tB34TDA, 5-tertiaryButyl-3,4-toluenediamine]
[1]
  T-5000 pot-life time: 7.24 min
[1]; listed as 5-tertiarybutyl-3,4-TDA
  T-5000 pot-life time: 7.2 min

## CCc1cc(C)c(N)c(CC)c1N [35DE24TDA, 3,5-Diethyl-2,4-toluenediamine]
[1]
  T-5000 pot-life time: 2.03 min

## CCC(C)(C)c1ccc(N)c(C)c1N [3tA26TDA, 3-tertiaryAmyl-2,6-toluenediamine]
[1]
  T-5000 pot-life time: 16.7 min

## Cc1cc(C(C)(C)C)c(N)cc1N [5tB24TDA, 5-tert-butyl-2,4-toluenediamine]
[2]; ADIPRENE 167
  suitability for preparing cast elastomers: too reactive
[3]; NCO index 1.04-1.06
  100% tensile: 1570 psi
  200% tensile: 2000 psi
  300% tensile: 2540 psi
  % elongation: 490%
  Shore A Hardness: 97
  Shore D Hardness: 60
  break tensile: 3630 psi
  flexural modulus: 26900 psi
  maximum stress: 1370 psi
  sag (125° C., 1 hr): 1.02 in
  tear resistance: 660 pli
  yield tensile: 1720 psi
[3]; NCO index .93-.96
  100% tensile: 1320 psi
  200% tensile: 1650 psi
  300% tensile: 2080 psi
  % elongation: 540%
  Shore A Hardness: 97
  Shore D Hardness: 59
  break tensile: 3150 psi
  flexural modulus: 22200 psi
  maximum stress: 1100 psi
  sag (125° C., 1 hr): 1.46 in
  tear resistance: 590 pli
  yield tensile: 1520 psi
[1]
  T-5000 pot-life time: 2.2 min and 2.24 min

## Cc1c(N)ccc(C(C)C)c1N [3iP26TDA, 3-isoPropyl-2,6-toluendiamine]
[1]
  T-5000 pot-life time: 2.68 min
[1]; listed as 3-isopropyl-2,6-TDA
  T-5000 pot-life time: 2.47 min
[1]; relative to 3-5-diisopropyl-2,6-TDA
  potlife increase over 3-5-diisopropyl-2,6-TDA: about 50%

## CCc1cc(CC)c(N)c(C)c1N [35DE26TDA, 3,5-Diethyl-2,6-toluenediamine]
[1]
  T-5000 pot-life time: 1.13 min
